Measured data: PubChem BioAssay AID504808 (Drosophila RNAi Screening Center, 2011)

- Test: 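Fly genes required to hold E2F transcription in check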 (primary screen)
- System: Drosophila S2 cells
- Reagent: long dsRNA against Drosophila genes
- Measurement: 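Firefly luciferase driven by E2F sites, normalised to Renilla luciferase on the same minimal promoter, measured by plate reader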
- Scale: E2F firefly: higher = more E2F reporter activity; Renilla normaliser: higher = more normaliser reporter signal
- Call rule: 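Called active if the normalised E2F reporter went up by over 50%; the cutoff is arbitrary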
The deposit covers about 21,000 reagents; this is an unselected part of those with a known target gene and a result. In the full data, 18 (0.084%) are marked active. 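Raw counts without plate normalisation, one of two replicates; the ratio scores behind the calls were not deposited.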 A plus sign joins genes that one reagent is predicted to hit. Not given: the amount of reagent, the time to read-out.

For asrij [DRSC04175], the values are E2F firefly, rep 1 = 1.02e5; Renilla normaliser, rep 1 = 4929; inactive. With knock-down of CG43861 + CG12508 (retired record) [DRSC02170] the results were E2F firefly, rep 1 = 1.07e5; Renilla normaliser, rep 1 = 4474; inactive. Depletion of CARPB (Carbonic anhydrase-related protein B) [DRSC18437] gave: E2F firefly, rep 1 = 8622; Renilla normaliser, rep 1 = 732; inactive. For CARPB (Carbonic anhydrase-related protein B) [DRSC18438], the values are E2F firefly, rep 1 = 1.18e5; Renilla normaliser, rep 1 = 5766; inactive. With knock-down of uri (unconventional prefoldin RPB5 interactor) [DRSC04111] the results were E2F firefly, rep 1 = 83978; Renilla normaliser, rep 1 = 4179; inactive. Silencing of Nt5a (5' nucleotidase A) [DRSC08561] gave: E2F firefly, rep 1 = 78063; Renilla normaliser, rep 1 = 3447; inactive.

Against LManVI (Lysosomal alpha-mannosidase VI) [DRSC03224] the deposit lists E2F firefly, rep 1 = 1.53e5; Renilla normaliser, rep 1 = 5323; inactive. After knock-down of Smox (Smad on X) [DRSC18716], the record shows E2F firefly, rep 1 = 97041; Renilla normaliser, rep 1 = 5444; inactive.

A portion from the list above:
uri (unconventional prefoldin RPB5 interactor) [DRSC04111] — E2F firefly, rep 1 = 83978; Renilla normaliser, rep 1 = 4179; Call = inactive
Nt5a (5' nucleotidase A) [DRSC08561] — E2F firefly, rep 1 = 78063; Renilla normaliser, rep 1 = 3447; Call = inactive

Additional results:
puf (puffyeye) [DRSC15875] showed E2F firefly, rep 1 = 74388; Renilla normaliser, rep 1 = 3736; inactive. Depletion of CG32198 [DRSC09553] came out at: E2F firefly, rep 1 = 1.20e5; Renilla normaliser, rep 1 = 3763; inactive. Silencing of CG6839 [DRSC10723] gave: E2F firefly, rep 1 = 74028; Renilla normaliser, rep 1 = 3277; inactive. Knock-down of CG31676 [DRSC02387] resulted in: E2F firefly, rep 1 = 1.01e5; Renilla normaliser, rep 1 = 4532; inactive. Depletion of Polr1D + DCTN6-p27 [DRSC02094] came out at: E2F firefly, rep 1 = 90458; Renilla normaliser, rep 1 = 5600; inactive. Depletion of NimC3 (Nimrod C3) [DRSC03556] came out at: E2F firefly, rep 1 = 90048; Renilla normaliser, rep 1 = 3831; inactive.

unc-13-4A [DRSC10201] scored E2F firefly, rep 1 = 1.02e5; Renilla normaliser, rep 1 = 3826; inactive. For unc-13-4A [DRSC10202] the deposit lists E2F firefly, rep 1 = 95516; Renilla normaliser, rep 1 = 3442; inactive. Silencing of unc-13-4A [DRSC10203] resulted in: E2F firefly, rep 1 = 67545; Renilla normaliser, rep 1 = 3383; inactive. After knock-down of unc-13-4A [DRSC11013] the results were E2F firefly, rep 1 = 95676; Renilla normaliser, rep 1 = 4308; inactive. For PGAP1 (Post-GPI attachment to proteins 1) [DRSC18286], the entry reads E2F firefly, rep 1 = 8224; Renilla normaliser, rep 1 = 824; inactive.
